Test results as given in patent US20110256132A1.
No constants are given. Whether binding was seen depends on the method and setting. Some results given as binding are weak or reduced against the parent protein; the word gives no strength.

How the values were obtained:
[1] = target: T1, mature myostatin released from latent complex following BMP-1 cleavage (mature human and mouse sequences 100% identical) (UniProt O08689); test: ELISA, plate-coated antigen (FIG. 4)
T1 sequence: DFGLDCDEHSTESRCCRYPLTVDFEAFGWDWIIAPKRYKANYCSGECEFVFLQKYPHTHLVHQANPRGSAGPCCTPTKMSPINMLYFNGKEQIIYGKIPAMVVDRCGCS

[2] = target: T1, mature myostatin released from latent complex following BMP-1 cleavage (mature human and mouse sequences 100% identical); test: ELISA, antigen coated at 100 ng/well, dilution series of 10B3, peroxidase anti-mouse IgG F(ab')2, TMB, OD450 (Example 2.3)

binding [1]: binds | binding [2]: binds
B1: mouse monoclonal antibody 10B3 (antibody, V domains shown)
VH: EVQLQQSGPELVKPGASVKISCKASGYSFTGYFMHWVKQSHGNILDWIGNIYPYNGVSNYNQRFKAKATLTVDKSSSTAYMELRSLTSEDSAVYYCARRYYYGTGPADWYFDVWGTGTTVTVSS
VL: DIKMTQSPSSMYASLRERVTITCKASQDINSYLSWFQQKPGKSPKTLIYRANRLVDGVPSRFSGSGSGQDYSLTISSLEYEDMGIYYCLQCDEFPLTFGAGTKLELK
